# Data published in article PMC8744235 (Journal of Biomedical Science, 2022).
# Assays:
# [1] = system: [^3H]VPA uptake in WT (hSOD1^WT) NSC-34 cell line; assay: Inhibition of [3H]VPA uptake by substrates/inhibitors/drugs, WT cell line; assay type: cell-based; details: 1 mM
# [2] = system: [^3H]VPA uptake in MT (hSOD1^G93A) NSC-34 cell line; details: 1 mM
smiles,measurement,setting,value
"NS(=O)(=O)c1cc(C(=O)O)c(NCc2ccco2)cc1Cl [Furosemide, furosemide]",depletion in VPA transport,[1],approximately 40%
same,depletion in VPA transport,[2],approximately 40%
